# According to patent US20240301056A1 (APITBIO, published 2024):
# Chains of the proteins cited; added tags and fusions are not shown. Lines headed by an entry give the natural chain unless they say otherwise; changes in a name come on top.
# UniProt P32004: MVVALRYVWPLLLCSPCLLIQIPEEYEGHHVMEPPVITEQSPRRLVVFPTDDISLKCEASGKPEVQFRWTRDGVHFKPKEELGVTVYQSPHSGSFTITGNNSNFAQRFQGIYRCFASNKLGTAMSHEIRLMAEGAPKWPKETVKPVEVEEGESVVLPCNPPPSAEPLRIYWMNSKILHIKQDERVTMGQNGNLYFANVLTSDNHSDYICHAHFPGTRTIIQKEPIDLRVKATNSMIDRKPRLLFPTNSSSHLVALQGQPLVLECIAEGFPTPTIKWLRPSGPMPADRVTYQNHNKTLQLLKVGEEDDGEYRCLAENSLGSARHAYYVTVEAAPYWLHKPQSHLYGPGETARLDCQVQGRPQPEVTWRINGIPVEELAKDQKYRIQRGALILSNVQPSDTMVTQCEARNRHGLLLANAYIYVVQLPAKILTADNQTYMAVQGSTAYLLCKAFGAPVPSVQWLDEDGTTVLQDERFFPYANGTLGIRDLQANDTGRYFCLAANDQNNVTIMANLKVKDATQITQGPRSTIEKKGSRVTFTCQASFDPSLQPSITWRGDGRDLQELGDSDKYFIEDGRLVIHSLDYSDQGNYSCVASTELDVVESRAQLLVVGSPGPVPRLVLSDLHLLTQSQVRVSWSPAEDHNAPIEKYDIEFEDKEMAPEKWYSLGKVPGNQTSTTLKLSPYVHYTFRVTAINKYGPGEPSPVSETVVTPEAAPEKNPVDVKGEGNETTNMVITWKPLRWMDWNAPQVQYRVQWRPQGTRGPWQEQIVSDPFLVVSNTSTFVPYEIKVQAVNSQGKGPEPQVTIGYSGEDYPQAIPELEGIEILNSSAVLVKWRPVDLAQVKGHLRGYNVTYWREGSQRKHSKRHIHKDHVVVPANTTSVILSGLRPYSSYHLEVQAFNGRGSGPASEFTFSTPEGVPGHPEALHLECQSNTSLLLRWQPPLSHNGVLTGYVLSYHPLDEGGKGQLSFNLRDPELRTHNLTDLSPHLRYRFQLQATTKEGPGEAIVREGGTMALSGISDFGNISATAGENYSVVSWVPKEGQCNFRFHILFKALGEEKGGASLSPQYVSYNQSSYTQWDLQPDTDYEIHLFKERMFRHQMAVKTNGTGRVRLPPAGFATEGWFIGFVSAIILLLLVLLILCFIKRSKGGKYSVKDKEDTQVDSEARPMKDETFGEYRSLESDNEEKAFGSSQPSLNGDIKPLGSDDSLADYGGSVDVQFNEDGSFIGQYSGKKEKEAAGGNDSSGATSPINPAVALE
# Positions count from the first letter of the chain named. No constants are given. Whether binding was seen depends on the method and setting. Some results given as binding are weak or reduced against the parent protein; the word gives no strength.
# B1: Ab4H5 antibody (antibody, human IgG1, kappa, V domains shown)
# VH: EVQLVESGGGVVQPGGSLRLSCAASGFTFSRFGMHWVRQAPGKGLEWVAFISNEGSNKYYADSVKGRFTISRDNSANTLYLQMNSLRAEDTAVYYCARGRAYGSGSLFDPWGQGTLVTVSS
# VL: DIQLTQSPSSLSASVGDRVTITCRASRTISSYVNWYRQRPGKAPESLIYAASNLHSGVPSRFSGSGSGTDFTLTISSLQPEDFATYYCQQAGFYTPWTFGQGTKLEIKR
# notes: Whole human IgG1, kappa; also called Anti-L1CAM ("Ab4H5"); Ab4H5 mutant
# B2: Ab612 antibody (antibody, human IgG1, kappa, V domains shown)
# VH: B1 VH
# VL: B1 VL with A91S, G92I, F93G, Y94R, T95G, W97V
# notes: Whole human IgG1, kappa, purified on protein A; also called Anti-L1CAM ("Ab612")
# B3: Ab4H6 antibody (antibody, human IgG1, kappa, V domains shown)
# VH: B1 VH
# VL: B1 VL with A91S, G92L, F93H, Y94F, T95Y
# notes: Whole human IgG1, kappa; also called Anti-L1CAM ("Ab4H6"); Ab4H6 mutant
# B4: Ab5D12 antibody (antibody, human IgG1, kappa, V domains shown)
# VH: B1 VH
# VL: B1 VL with A91S, G92L, F93V, Y94W, T95Y
# notes: Whole human IgG1, kappa; also called Anti-L1CAM ("Ab5D12"); Ab5D12 mutant
# B5: Ab2C2 antibody (antibody, human IgG1, kappa, V domains shown)
# VH: B1 VH
# VL: B1 VL with T95S
# notes: Whole human IgG1, kappa; also called Anti-L1CAM ("Ab2C2"); Ab2C2 mutant
# Biological target: Human L1CAM on NCI-H522 and SKOV3 cells (human) (UniProt P32004)
# Experiment: flow cytometry, antibody at 10 ug/ml, FITC anti-human IgG Fc
row,binding,Binder
1,binds,B1
2,binds,B2
3,binds,B3
4,binds,B4
5,binds,B5

# Biological target: Human L1CAM on NCI-H522 and SKOV3 cells (human) (UniProt P32004)
# Experiment: flow cytometry on SKOV3 cells, antibody 10 ug/ml, FITC anti-human IgG Fc secondary
row,binding,Binder
1,binds,B1
2,binds,B2
3,binds,B3
4,binds,B4
5,binds,B5

# Biological target: Human L1CAM on NCI-H522 and SKOV3 cells (human) (UniProt P32004)
# Experiment: flow cytometry on NCI-H522 cells, antibody 10 ug/ml, FITC anti-human IgG Fc secondary
row,binding,Binder
1,binds,B1
2,binds,B2
3,binds,B3
4,binds,B4
5,binds,B5
